Reference: publication PMC5818438
These are yes or no findings as the source states them, for the method shown. Binding seen in cells or lysates may run through a third protein. Some binding calls cover weakened binding; strength is not graded here.

Chains of the proteins cited; added tags and fusions are not shown.
UniProt Q64264: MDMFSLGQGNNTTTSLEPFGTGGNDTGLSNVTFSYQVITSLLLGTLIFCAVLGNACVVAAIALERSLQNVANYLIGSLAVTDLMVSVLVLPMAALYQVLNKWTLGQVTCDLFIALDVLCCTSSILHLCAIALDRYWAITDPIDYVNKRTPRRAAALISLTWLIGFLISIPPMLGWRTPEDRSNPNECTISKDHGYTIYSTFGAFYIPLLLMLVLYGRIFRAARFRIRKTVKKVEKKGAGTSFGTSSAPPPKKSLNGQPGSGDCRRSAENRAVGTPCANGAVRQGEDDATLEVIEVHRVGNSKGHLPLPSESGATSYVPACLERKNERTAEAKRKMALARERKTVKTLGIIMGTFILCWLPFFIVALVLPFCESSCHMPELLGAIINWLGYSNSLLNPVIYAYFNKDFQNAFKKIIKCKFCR
UniProt P35363: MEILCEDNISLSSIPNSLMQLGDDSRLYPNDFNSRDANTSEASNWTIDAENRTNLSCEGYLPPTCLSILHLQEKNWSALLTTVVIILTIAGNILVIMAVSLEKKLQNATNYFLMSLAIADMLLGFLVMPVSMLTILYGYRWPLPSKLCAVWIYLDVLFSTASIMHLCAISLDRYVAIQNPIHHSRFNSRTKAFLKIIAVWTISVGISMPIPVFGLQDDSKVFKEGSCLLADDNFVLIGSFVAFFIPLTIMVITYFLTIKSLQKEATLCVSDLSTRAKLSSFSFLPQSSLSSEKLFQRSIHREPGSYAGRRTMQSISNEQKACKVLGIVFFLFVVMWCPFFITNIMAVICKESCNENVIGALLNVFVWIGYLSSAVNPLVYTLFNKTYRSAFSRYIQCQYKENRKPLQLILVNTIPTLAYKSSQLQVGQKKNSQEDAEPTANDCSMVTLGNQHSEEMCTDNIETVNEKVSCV

Molecular target: serotonin 5-HT1A receptor (mouse (endogenous in C57Bl/6J brain and mouse cortex neurons)) (UniProt Q64264)
Test: proximity ligation; Duolink in situ PLA on 5 um coronal mouse brain sections (prefrontal and frontal cortex); primary antibodies 1:100; fluorescent spots counted; mice treated acutely or sub-chronically with saline, ketamine, clozapine (0.3 or 1 mg/kg) or haloperidol (0.1 mg/kg)

binding: binds
Substance: serotonin 5-HT2A receptor (from UniProt P35363 1-471)
